The values below come from the supplement of paper PMC12067093, “Discovery and optimisation of a covalent ligand for TRIM25 and its application to targeted protein ubiquitination” (Chemical Science, 2025).

Protein sequences, listed by entry. Tags and fused reporters are not part of them. Lines headed by an entry give the natural chain unless they say otherwise; changes in a name come on top.
UniProt Q92608: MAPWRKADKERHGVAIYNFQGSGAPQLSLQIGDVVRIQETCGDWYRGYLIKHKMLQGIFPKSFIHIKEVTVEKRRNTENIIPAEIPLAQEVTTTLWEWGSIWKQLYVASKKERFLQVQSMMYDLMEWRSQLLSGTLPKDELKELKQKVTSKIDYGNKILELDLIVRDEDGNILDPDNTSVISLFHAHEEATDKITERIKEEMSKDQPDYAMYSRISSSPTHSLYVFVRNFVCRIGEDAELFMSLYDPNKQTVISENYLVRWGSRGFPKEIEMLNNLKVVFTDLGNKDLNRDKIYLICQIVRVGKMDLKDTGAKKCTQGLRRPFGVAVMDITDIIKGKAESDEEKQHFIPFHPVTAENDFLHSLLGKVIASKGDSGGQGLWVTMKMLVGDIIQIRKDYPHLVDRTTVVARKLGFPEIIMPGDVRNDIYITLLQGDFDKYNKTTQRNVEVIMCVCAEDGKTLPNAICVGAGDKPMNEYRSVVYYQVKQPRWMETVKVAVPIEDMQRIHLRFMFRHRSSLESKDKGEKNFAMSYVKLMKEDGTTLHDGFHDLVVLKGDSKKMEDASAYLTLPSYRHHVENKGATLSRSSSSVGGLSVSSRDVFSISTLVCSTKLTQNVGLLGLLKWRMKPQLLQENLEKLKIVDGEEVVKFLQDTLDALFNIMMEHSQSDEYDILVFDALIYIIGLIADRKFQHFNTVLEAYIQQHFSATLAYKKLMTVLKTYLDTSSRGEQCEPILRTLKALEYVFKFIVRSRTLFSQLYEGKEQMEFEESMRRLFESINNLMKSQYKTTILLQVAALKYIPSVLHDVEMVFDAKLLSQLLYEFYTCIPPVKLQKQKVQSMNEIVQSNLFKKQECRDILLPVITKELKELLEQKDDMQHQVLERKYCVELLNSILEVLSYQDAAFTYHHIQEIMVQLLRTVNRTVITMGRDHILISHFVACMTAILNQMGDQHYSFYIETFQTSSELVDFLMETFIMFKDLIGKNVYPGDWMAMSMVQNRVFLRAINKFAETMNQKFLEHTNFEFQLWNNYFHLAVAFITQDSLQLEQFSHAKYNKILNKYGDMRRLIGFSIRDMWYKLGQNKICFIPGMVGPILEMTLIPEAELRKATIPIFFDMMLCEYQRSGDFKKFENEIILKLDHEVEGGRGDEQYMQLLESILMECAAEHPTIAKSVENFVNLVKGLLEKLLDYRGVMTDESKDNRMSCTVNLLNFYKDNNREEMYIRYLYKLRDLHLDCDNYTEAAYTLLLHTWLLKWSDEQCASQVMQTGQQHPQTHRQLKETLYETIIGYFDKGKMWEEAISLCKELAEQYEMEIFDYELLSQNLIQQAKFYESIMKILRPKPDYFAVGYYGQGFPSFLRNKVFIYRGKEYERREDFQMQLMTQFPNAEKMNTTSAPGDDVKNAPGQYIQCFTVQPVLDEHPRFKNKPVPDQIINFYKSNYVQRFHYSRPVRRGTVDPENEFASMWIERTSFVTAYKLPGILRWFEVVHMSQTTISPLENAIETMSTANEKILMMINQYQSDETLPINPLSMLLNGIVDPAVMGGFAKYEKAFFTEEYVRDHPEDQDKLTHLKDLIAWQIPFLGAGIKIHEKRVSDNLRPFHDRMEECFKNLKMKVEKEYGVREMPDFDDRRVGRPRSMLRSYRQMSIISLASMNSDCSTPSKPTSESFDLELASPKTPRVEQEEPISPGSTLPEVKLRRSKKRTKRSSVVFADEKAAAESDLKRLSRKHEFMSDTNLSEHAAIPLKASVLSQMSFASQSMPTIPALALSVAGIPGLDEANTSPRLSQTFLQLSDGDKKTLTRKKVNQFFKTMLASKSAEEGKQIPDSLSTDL
UniProt Q5VZP5: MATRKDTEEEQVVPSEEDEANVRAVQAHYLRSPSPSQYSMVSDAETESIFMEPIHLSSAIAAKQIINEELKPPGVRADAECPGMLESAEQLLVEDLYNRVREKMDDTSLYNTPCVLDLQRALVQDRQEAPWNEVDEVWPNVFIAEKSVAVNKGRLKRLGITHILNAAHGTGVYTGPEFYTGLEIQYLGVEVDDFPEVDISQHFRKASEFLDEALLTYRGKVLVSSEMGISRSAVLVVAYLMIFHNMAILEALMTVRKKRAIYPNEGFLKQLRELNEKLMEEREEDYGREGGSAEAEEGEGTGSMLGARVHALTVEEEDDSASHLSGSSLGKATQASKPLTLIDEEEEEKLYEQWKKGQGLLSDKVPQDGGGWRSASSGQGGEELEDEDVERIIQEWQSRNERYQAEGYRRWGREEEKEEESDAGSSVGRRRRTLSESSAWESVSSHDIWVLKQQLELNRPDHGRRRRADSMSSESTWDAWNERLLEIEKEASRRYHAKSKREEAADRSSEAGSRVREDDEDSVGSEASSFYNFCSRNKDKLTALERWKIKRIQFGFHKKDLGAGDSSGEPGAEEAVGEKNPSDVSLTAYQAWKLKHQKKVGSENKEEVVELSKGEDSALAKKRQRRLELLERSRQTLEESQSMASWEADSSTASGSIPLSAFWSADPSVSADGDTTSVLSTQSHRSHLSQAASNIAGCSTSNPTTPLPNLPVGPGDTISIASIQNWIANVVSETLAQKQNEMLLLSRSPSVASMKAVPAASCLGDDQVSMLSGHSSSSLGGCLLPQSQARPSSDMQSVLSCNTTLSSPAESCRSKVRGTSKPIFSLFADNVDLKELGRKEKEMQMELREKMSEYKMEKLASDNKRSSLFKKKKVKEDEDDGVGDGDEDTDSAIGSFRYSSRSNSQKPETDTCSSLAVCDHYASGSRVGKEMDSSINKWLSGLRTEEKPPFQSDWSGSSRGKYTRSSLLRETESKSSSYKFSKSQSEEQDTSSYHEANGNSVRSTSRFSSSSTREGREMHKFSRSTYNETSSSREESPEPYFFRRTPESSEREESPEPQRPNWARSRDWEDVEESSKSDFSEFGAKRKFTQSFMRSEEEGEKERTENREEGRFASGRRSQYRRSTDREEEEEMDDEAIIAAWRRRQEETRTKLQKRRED
UniProt Q9H2P9: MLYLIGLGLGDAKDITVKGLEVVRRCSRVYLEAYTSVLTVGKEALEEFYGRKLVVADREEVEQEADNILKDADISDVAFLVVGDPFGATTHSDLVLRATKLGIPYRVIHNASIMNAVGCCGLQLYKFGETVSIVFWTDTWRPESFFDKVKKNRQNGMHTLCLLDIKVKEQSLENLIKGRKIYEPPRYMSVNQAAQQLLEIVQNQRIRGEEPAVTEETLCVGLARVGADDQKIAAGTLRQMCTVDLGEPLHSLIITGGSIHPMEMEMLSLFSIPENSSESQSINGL
UniProt Q9H7D0, whole entry, looked up: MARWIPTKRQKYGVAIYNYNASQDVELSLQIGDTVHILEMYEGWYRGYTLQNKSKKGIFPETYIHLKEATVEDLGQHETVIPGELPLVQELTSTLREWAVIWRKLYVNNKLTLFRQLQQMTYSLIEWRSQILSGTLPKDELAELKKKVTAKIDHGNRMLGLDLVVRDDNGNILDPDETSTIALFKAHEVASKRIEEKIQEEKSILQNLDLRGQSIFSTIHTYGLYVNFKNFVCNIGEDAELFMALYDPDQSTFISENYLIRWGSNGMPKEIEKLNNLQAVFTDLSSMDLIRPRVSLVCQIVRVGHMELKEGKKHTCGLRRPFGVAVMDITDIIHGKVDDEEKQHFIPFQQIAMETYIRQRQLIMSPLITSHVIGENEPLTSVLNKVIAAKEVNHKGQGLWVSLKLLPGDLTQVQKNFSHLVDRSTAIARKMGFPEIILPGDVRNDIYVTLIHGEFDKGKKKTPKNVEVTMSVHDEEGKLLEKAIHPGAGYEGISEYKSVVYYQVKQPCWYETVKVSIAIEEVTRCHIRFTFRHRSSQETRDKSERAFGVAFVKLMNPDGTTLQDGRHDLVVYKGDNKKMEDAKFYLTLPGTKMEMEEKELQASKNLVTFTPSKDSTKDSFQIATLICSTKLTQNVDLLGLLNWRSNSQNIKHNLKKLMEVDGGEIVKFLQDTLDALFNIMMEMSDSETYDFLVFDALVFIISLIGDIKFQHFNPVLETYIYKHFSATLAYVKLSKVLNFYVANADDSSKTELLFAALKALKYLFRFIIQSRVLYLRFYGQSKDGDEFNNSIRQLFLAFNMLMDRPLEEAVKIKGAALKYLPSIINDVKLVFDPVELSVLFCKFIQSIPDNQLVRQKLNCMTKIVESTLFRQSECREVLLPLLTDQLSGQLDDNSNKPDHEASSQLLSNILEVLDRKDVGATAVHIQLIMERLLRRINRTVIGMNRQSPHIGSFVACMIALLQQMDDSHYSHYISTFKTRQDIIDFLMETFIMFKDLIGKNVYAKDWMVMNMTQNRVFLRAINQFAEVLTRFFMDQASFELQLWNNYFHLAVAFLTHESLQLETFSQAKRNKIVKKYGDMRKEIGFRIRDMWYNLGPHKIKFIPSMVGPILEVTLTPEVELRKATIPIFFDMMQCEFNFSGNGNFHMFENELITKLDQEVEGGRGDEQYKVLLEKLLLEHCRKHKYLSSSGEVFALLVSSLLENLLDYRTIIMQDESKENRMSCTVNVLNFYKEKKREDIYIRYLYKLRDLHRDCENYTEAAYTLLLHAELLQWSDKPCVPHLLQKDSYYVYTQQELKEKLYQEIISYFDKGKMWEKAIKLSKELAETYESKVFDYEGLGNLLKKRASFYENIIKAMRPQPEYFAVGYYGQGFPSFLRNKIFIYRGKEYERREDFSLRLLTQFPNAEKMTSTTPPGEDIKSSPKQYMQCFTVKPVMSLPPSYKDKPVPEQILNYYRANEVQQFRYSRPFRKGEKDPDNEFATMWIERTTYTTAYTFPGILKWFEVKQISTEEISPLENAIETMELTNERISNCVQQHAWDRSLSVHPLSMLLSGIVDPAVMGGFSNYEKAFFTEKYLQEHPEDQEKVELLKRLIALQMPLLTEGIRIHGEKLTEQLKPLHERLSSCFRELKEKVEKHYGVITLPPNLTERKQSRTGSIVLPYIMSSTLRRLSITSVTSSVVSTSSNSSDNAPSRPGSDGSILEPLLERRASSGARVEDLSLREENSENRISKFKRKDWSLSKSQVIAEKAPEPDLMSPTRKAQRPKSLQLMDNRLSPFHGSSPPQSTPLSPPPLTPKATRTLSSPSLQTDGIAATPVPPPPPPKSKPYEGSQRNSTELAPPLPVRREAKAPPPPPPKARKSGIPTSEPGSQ
UniProt Q7L591: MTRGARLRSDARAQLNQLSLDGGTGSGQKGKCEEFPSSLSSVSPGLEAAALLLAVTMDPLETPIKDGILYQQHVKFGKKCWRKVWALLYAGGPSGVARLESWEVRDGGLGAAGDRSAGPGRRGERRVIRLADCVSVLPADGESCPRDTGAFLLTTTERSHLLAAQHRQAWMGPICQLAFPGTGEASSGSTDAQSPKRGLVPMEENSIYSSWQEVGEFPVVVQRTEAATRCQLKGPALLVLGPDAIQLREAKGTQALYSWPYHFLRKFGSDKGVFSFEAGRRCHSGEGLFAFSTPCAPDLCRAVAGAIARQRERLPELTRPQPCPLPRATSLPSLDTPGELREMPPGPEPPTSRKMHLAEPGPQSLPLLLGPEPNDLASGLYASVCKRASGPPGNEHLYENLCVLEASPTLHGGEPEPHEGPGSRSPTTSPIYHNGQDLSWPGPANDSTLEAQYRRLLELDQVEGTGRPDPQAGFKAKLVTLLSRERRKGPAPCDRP
UniProt Q5JPH6: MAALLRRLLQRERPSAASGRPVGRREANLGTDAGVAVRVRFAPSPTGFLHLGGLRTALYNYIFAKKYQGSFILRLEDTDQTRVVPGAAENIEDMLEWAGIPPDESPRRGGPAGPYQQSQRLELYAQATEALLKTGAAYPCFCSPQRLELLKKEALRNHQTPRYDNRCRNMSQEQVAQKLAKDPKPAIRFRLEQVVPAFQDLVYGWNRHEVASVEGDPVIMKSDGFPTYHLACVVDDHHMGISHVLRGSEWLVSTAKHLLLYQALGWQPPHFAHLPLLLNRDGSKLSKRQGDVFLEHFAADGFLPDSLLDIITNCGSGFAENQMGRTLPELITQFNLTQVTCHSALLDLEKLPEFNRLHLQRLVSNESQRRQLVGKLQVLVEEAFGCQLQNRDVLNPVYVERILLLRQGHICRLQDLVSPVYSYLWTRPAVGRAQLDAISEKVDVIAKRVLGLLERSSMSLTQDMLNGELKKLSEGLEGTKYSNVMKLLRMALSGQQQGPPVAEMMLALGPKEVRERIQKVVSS
UniProt Q8NBA8: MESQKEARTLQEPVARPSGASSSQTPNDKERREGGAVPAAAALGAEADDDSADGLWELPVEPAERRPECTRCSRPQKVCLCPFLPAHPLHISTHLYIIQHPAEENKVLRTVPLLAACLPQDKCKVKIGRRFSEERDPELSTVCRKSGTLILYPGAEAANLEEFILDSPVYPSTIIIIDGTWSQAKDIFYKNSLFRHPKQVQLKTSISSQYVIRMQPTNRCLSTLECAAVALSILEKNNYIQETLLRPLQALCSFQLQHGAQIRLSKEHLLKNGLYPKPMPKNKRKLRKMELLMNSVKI

This is one part of the list.

Compound in this experiment: Cc1cc(ccc1-c1ccccc1)C(=O)N1CCCN(CC1)C(=O)CCl [compound 10]
Put plainly: probe-labelled cysteine peptide fold change vs DMSO (competition) (log2 fold change); higher = less target engagement (more negative = stronger competition). As to conditions: THP-1, incubation time: 4 h.
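Also: competitive profiling in live THP-1 cells: cysteine peptides tagged with an iodoacetamide desthiobiotin (IA-DTB) probe, intensity after compound treatment relative to DMSO-treated cells.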

Consider “DOCK2_Q92608_1203_MSCTVNLLNFYK (UniProt Q92608)”, for which the “probe-labelled cysteine peptide fold change” value is -0.0626 (10 µM) and 0.0461 (50 µM).

For the target “DYNC1H1_Q14204_2712_IQFVGACNPPTDPGRK (UniProt Q14204)”, the “probe-labelled cysteine peptide fold change” value runs as follows: (10 µM) 0.032; (50 µM) 0.353.

“DUSP27_Q5VZP5_912_SNSQKPETDTCSSLAVCDHYASGSR (UniProt Q5VZP5)”: the “probe-labelled cysteine peptide fold change” value reads like this: (10 µM) -0.203; (50 µM) -0.273.

“DYNC1H1_Q14204_1977_MLSAVSQQVQCIQEALREHSNPNYDK (UniProt Q14204)”: the “probe-labelled cysteine peptide fold change” value was -0.166 (10 µM) and -0.401 (50 µM).

Consider “DPH5_Q9H2P9_161_QNGMHTLCLLDIK (UniProt Q9H2P9)”, for which the “probe-labelled cysteine peptide fold change” value is 0.0814 (10 µM) and -0.172 (50 µM).

“DYNC1H1_Q14204_2076_LCDEQLSSQSHYDFGLR (UniProt Q14204)”: the “probe-labelled cysteine peptide fold change” value runs as follows: (10 µM) 0.000184; (50 µM) 0.106.

Turning to “DOCK5_Q9H7D0_859_LNCMTK (UniProt Q9H7D0)”, the “probe-labelled cysteine peptide fold change” value (10 µM) stood at 0.0398 and the “probe-labelled cysteine peptide fold change” value (50 µM) was found to be 0.000881.

For “DOK3_Q7L591_493_KGPAPCDRP (UniProt Q7L591)”, the “probe-labelled cysteine peptide fold change” value (10 µM) is -0.0231 and the “probe-labelled cysteine peptide fold change” value (50 µM) is 0.0248.

On to “DOT1L_Q8TEK3_1075_GDCVPSHGQDSR (UniProt Q8TEK3)”, for which the “probe-labelled cysteine peptide fold change” value is, setting by setting: (10 µM) -0.037; (50 µM) -0.209.

Take “ECHDC1_Q9NTX5_133_SLGTPEDGMAVCMFMQNTLTR (UniProt Q9NTX5)”: the “probe-labelled cysteine peptide fold change” value by setting is: (10 µM) 0.298; (50 µM) 0.0908.

For “DPF2_Q92785_24_DAMEQCHNYNAR (UniProt Q92785)”, the “probe-labelled cysteine peptide fold change” value is 0.000209 (10 µM) and -0.0844 (50 µM).

On to “DOCK2_Q92608_1408_NAPGQYIQCFTVQPVLDEHPR (UniProt Q92608)”, for which the “probe-labelled cysteine peptide fold change” value is, setting by setting: (10 µM) 0.113; (50 µM) -0.174.

“DOCK8_Q8NF50_305_ISENFHCDLNSDQFK (UniProt Q8NF50)”: the “probe-labelled cysteine peptide fold change” value (10 µM) is -0.102 and the “probe-labelled cysteine peptide fold change” value (50 µM) was -0.109.

For “DSCR3_O14972_137_TCEFIVHSAPQK (UniProt O14972)”, the “probe-labelled cysteine peptide fold change” value is 0.229 (10 µM) and 0.202 (50 µM).

For the target “EARS2_Q5JPH6_386_LQVLVEEAFGCQLQNR (UniProt Q5JPH6)”, the “probe-labelled cysteine peptide fold change” value is 0.131 (10 µM) and -0.126 (50 µM).

Consider “DOCK11_Q5JSL3_1110_VQDSNLEYSLSDEYCK (UniProt Q5JSL3)”, for which the “probe-labelled cysteine peptide fold change” value came out at 0.0641 (10 µM) and 0.252 (50 µM).

Take “DUSP27_Q5VZP5_81_ADAECPGMLESAEQLLVEDLYNR (UniProt Q5VZP5)”: the “probe-labelled cysteine peptide fold change” value is, setting by setting: (10 µM) -0.28; (50 µM) -0.329.

Turning to “DOK3_Q7L591_282+295_CHSGEGLFAFSTPCAPDLCR (UniProt Q7L591)”, the “probe-labelled cysteine peptide fold change” value is -0.113 (10 µM) and -0.351 (50 µM).

Consider “DOCK5_Q9H7D0_627_DSFQIATLICSTK (UniProt Q9H7D0)”, for which the “probe-labelled cysteine peptide fold change” value reads like this: (10 µM) 0.12; (50 µM) 0.118.

Turning to “DOCK8_Q8NF50_590_IQFMCGEDASNAMPVIFGK (UniProt Q8NF50)”, the “probe-labelled cysteine peptide fold change” value (10 µM) was determined as 0.192 and the “probe-labelled cysteine peptide fold change” value (50 µM) came to 0.0438.

In the case of “DYNC1H1_Q14204_1977_MLSAVSQQVQCIQEALR (UniProt Q14204)”, the “probe-labelled cysteine peptide fold change” value was 0.116 (10 µM) and 0.369 (50 µM).

On to “DOK2_O60496_110_GDWVQAICLLAFPGQR (UniProt O60496)”, for which the “probe-labelled cysteine peptide fold change” value runs as follows: (10 µM) 0.00867; (50 µM) -0.172.

On to “DPYSL2_Q16555_179_DRFQLTDCQIYEVLSVIR (UniProt Q16555)”, for which the “probe-labelled cysteine peptide fold change” value reads like this: (10 µM) 0.25; (50 µM) 0.294.

In the case of “DSTN_P60981_39_AVIFCLSADK (UniProt P60981)”, the “probe-labelled cysteine peptide fold change” value runs as follows: (10 µM) -0.093; (50 µM) -0.0395.

“DYNC1H1_Q14204_2594_HEALLYTWLAEHKPLVLCGPPGSGK (UniProt Q14204)”: the “probe-labelled cysteine peptide fold change” value is 0.0486 (10 µM) and -0.151 (50 µM).

For “DOK1_Q99704_224_RCPSGPGTFTFQTAQGNDIFQAVETAIHR (UniProt Q99704)”, the “probe-labelled cysteine peptide fold change” value was -0.178 (10 µM) and -0.282 (50 µM).

“DUS3L_Q96G46_358_RHQCEDIFGVQLEGAFPDTMTK (UniProt Q96G46)”: the “probe-labelled cysteine peptide fold change” value by setting is: (10 µM) -0.0881; (50 µM) 0.0576.

With “DTX3L_Q8TDB6_599_AMSYKPICPTCQTSYGIQK (UniProt Q8TDB6)”, the “probe-labelled cysteine peptide fold change” value by setting is: (10 µM) 0.0315; (50 µM) -0.482.

Regarding “DRG2_P55039_198_KGGGISFNSTVTLTQCSEK (UniProt P55039)”, the “probe-labelled cysteine peptide fold change” value runs as follows: (10 µM) 0.255; (50 µM) 0.104.

On to “DUSP12_Q9UNI6_115_AVLVHCHAGVSR (UniProt Q9UNI6)”, for which the “probe-labelled cysteine peptide fold change” value (10 µM) was -0.0273 and the “probe-labelled cysteine peptide fold change” value (50 µM) is -0.108.

On to “DYNC1H1_Q14204_4438_QDLADVVQVCEGK (UniProt Q14204)”, for which the “probe-labelled cysteine peptide fold change” value runs as follows: (10 µM) -0.0212; (50 µM) 0.124.

“ECH1_Q13011_182_CPKPVIAAVHGGCIGGGVDLVTACDIR (UniProt Q13011)”: the “probe-labelled cysteine peptide fold change” value is 0.139 (10 µM) and -0.105 (50 µM).

In the case of “DOCK2_Q92608_1234_DLHLDCDNYTEAAYTLLLHTWLLK (UniProt Q92608)”, the “probe-labelled cysteine peptide fold change” value reads like this: (10 µM) 0.294; (50 µM) 0.456.

As to “E4F1_Q66K89_361_ALAPEPPVSQELPCSSEGSR (UniProt Q66K89)”, the “probe-labelled cysteine peptide fold change” value runs as follows: (10 µM) -0.335; (50 µM) -0.073.

As to “DUT_P33316_166_TDIQIALPSGCYGR (UniProt P33316)”, the “probe-labelled cysteine peptide fold change” value was 0.11 (10 µM) and -0.0875 (50 µM).

As to “DTWD2_Q8NBA8_220_CLSTLECAAVALSILEK (UniProt Q8NBA8)”, the “probe-labelled cysteine peptide fold change” value reads like this: (10 µM) 0.149; (50 µM) -0.834.
